This is one part of the list.

In this test the test system is T1, CTL2-GFP (C. trachomatis L2/434/Bu, GFP-expressing).
T1 construct: L2/434/Bu, GFP-expressing
Set-up: species or system HeLa; Intracellular C. trachomatis growth in HeLa cells, bulk GFP fluorescence relative to DMSO. The note with it: bulk GFP, single well; 28.5 h, 10 µM; inhibitor.
For the compound `Cc1cccc(C)c1NC(=O)c1c(NC(=O)c2ccco2)sc2c1CCC(C)C2` (centres unmarked) [CBK265550], the “% of control remaining” value is 124.636%.
As for `Cc1ccc(/C=N/N=C2/N=C(O)C(CC(=O)Nc3ccccc3C(F)(F)F)S2)o1` (centres unmarked) [CBK263731], the “% of control remaining” value is reported as 120.462%.
For `O=C(NC(C(=O)O)C12CC3CC(CC(C3)C1)C2)c1ccc([N+](=O)[O-])cc1` (centres unmarked) [CBK261405], the “% of control remaining” value worked out at 100%.
On to `O=C(Nc1cccc(-c2nc3ncccc3o2)c1)c1cccc(OCc2ccccc2)c1` [CBK263126], for which the “% of control remaining” value is given as 116.185%.
Turning to `COCCCNC(=O)C1CCCN(c2nc3c(-c4ccc(C)cc4)csc3c(=O)[nH]2)C1` (centres unmarked) [CBK215548], the “% of control remaining” value is on record as 134.99%.
For `CCC(Oc1ccc(C)cc1)C(=O)Nc1ccc(S(N)(=O)=O)cc1` (centres unmarked) [CBK270036], the “% of control remaining” value is 130.045%.
On to `CCn1c(CN2CCCC2c2nc(N(C)C)ncc2-c2ccc(F)cc2)nc2ccccc21` (centres unmarked) [CBK285974], for which the “% of control remaining” value was 94.278%.
In the case of `NC(CC(=O)O)c1ccc(F)c(Oc2ccccc2)c1` (centres unmarked) [CBK286912], the “% of control remaining” value was found to be 118.581%.
For `Cc1onc(-c2ccccc2)c1CNC(=O)c1cccc(C(F)(F)F)c1` [CBK144079], the “% of control remaining” value is listed as 122.458%.
As to `CCc1nn(CC(=O)N2CCCCCC2)c(=O)c2cc3occc3n12` [CBK283677], the “% of control remaining” value is 146.237%.
Turning to `CCOC(=O)c1cccc(NS(=O)(=O)c2cccc3cccnc23)c1` [CBK034345], the “% of control remaining” value is 86.5065%.
With `O=c1nc2n(Cc3ccccc3)c3ccccc3cc-2c(=O)[nH]1` [CBK287958], the “% of control remaining” value was 157.245%.
Consider `Cc1c(C(=O)O)sc2ncn(CCCOc3ccc(Cl)cc3)c(=O)c12` [CBK286695], for which the “% of control remaining” value amounted to 115.736%.
On to `COc1ccc(C(NC(=O)[C@H]2CCCN2C(=O)Cc2cccs2)c2ccccc2C)cn1` (some centres unmarked) [CBK075053], for which the “% of control remaining” value stood at 169.275%.
In the case of `O=C(O)C1Nc2c(C(=O)N3CCOCC3)cccc2C2C=CCC12` (centres unmarked) [CBK275006], the “% of control remaining” value is recorded as 92.305%.
With `CCCC(=O)Nc1ccc(C(=O)N2CCN(CC)CC2)cc1` [CBK304218], the “% of control remaining” value was found to be 170.982%.
Regarding `O=C(CSc1ncn(-c2ccccc2)n1)Nc1c(Cl)cccc1Cl` [CBK269683], the “% of control remaining” value is 138.926%.
Take `CC(C)(C)c1cc(CCC(=O)N/N=C/c2ccco2)cc(C(C)(C)C)c1O` [CBK261960]: the “% of control remaining” value was determined as 110.648%.
For `CS(=O)(=O)N[C@H]1CO[C@H]2[C@@H]1OC[C@@H]2Nc1nccc(-c2cccs2)n1` [CBK289519], the “% of control remaining” value came out at 120.843%.
With `Cn1c(Cc2ccccc2)nnc1SCC(=O)Nc1ccc(N2CCOCC2)cc1` [CBK269750], the “% of control remaining” value is 124.014%.
Take `Cc1nc(SCCO)c2c(=O)n(C)c(=O)n(CC(C)C)c2n1` [CBK306114]: the “% of control remaining” value was found to be 81.3023%.
As for `COc1ccc(C(C)c2cc3c(cc2O)OCO3)c(F)c1` (centres unmarked) [CBK200101], the “% of control remaining” value turned out to be 85.4571%.
With `COc1ccc(-n2c(=O)[nH]c3ncc(-c4ccco4)nc32)c(C)c1` [CBK065019], the “% of control remaining” value was 73.4036%.
Consider `Cc1nc(S(=O)(=O)Cc2c(F)cccc2Cl)n(CC2CCCO2)c1C` (centres unmarked) [CBK304706], for which the “% of control remaining” value came out at 132.821%.
With `CN(c1ncccc1C#N)C1CCN(C(=O)OCc2ccccc2)CC1` [CBK023869C], the “% of control remaining” value amounted to 151.969%.
Next, `Cc1ccc(-c2nnc3sc(-c4cnccn4)nn23)cc1` [CBK268258]: 123.111%.
On to `CCc1nnc(NS(=O)(=O)c2ccc(NC(=O)COc3ccc(Cl)cc3Cl)cc2)s1` [CBK200050], for which the “% of control remaining” value came out at 27.9435%.
As for `O=C(NCC1CCCCC1)C1(Cc2ccc(-c3cccnc3)cc2)CCOCC1` [CBK285591], the “% of control remaining” value was 99.2035%.
As to `O=C(O)C(O)C(O)c1nc2ccccc2[nH]1` (centres unmarked) [CBK260955], the “% of control remaining” value was 95.2219%.
`COc1ccccc1CNCCc1ccc(S(N)(=O)=O)cc1` [CBK269852C]: the “% of control remaining” value amounted to 119.34%.
With `CN(C)C(=O)c1ccc(-c2ccc(COC3CCN(C(=O)c4cc5ccccc5o4)CC3)c(S(C)(=O)=O)c2)cc1` [CBK155965], the “% of control remaining” value came to 88.9125%.
Then `O=C(CC1C(=O)NCCN1C(=S)Nc1ccccc1)Nc1ccc2c(c1)OCCO2` (centres unmarked) [CBK267999], with 102.497%.
Consider `CN(C)C(=O)Cn1nc(-c2cc3c(s2)CCC3)oc1=O` [CBK284715], for which the “% of control remaining” value is given as 91.393%.
Then `O=C(CCn1c(C(F)(F)F)cc2cccnc21)NC1CCCOC1` (centres unmarked) [CBK284867], with 82.3675%; and `CSc1ccc(CN2CCN(S(=O)(=O)Cc3ccccc3)CC2)cc1` [CBK264301G], with 110.48%.
Then `CC(=O)Nc1ccc(SC(C)c2nsc(NS(=O)(=O)c3ccc(-c4ccccc4)cc3)n2)cc1` (centres unmarked) [CBK047508], with 140.956%; and `O=C(Nc1cccc(Cl)c1)N[C@H]1C[C@H]2C(=O)NC[C@@H](CCC(=O)N3CCCC3)N2C1` [CBK289003], with 145.337%; and `CC(C)(C)c1cc2cc(NC(=O)C3CC3)ccc2[nH]1` [CBK019994], with 97.6928%.
For the compound `Cc1cc(NC(=O)c2ccc3c(c2)OCCO3)c2ccccc2n1` [CBK122739], the “% of control remaining” value is recorded as 86.3992%.
`CNc1nc2c(ncn2C2CC(O)C(CO)O2)c(=O)[nH]1` (centres unmarked) [CBK201312]: the “% of control remaining” value is given as 163.891%.
Next, `CC(Oc1ccccc1Br)c1nc(-c2nonc2N)no1` (centres unmarked) [CBK026982]: 96.3861%; `CC1(C)CCCN(Cc2nnnn2-c2ccc(S(C)(=O)=O)cc2)CC1` [CBK306177]: 141.551%; `O=c1[nH]c2ncc(-c3ccoc3)nc2n1Cc1ccco1` [CBK064639]: 182.96%.
Turning to `Cc1nc(C2CCCN(C(=O)c3ccnn3C)C2)c2sccn12` (centres unmarked) [CBK285235], the “% of control remaining” value is 132.445%.
On to `N#Cc1sc(NC(=O)c2cccc(Br)c2)nc1Cl` [CBK017468], for which the “% of control remaining” value is recorded as 31.8167%.
In the case of `COc1ccc(Cn2nc3nnc(-c4ccccc4)c(-c4ccccc4)n3c2=O)cc1` [CBK286180], the “% of control remaining” value was determined as 104.979%.
For `CC(=O)Nc1ccc(Nc2ccc([N+](=O)[O-])cc2[N+](=O)[O-])cc1` [CBK260886], the “% of control remaining” value stood at 114.708%.
With `Cc1nc2nc(-c3ccc(Cl)s3)cn2nc1C` [CBK284565], the “% of control remaining” value stood at 84.836%.
For `COCCC(=O)NC(Cc1ccsc1)c1nc(C)c(C)s1` (centres unmarked) [CBK284774], the “% of control remaining” value is given as 184.32%.
On to `CN(C)CCN(C)c1nc(-c2ccc(C(=O)O)cc2)cn2ccnc12` [CBK037880], for which the “% of control remaining” value amounted to 164.533%.
Then `O=C(CCn1cncn1)N[C@H]1C2CCCCC2[C@@H]1c1ccccc1` (some centres unmarked) [CBK282970], with 129.221%; and `Cc1cc(C2CCCN(C(=O)CC3OCCc4sccc43)C2)n[nH]1` (centres unmarked) [CBK305241], with 109.055%; and `CC(C)CC1C(=O)NCCN1Cc1ccccc1` (centres unmarked) [CBK005336], with 98.352%.
With `COCc1nnc(S)n1-c1cccc(OC)c1` [CBK288424], the “% of control remaining” value is recorded as 134.459%.
Then `CCC1c2cccn2CCN1C(=O)c1cc(-c2ccccn2)n[nH]1` (centres unmarked) [CBK283224], with 116.945%; and `COc1ccc(NC(=O)c2ccc(N(C)Cc3ccccc3)c([N+](=O)[O-])c2)cc1` [CBK268094], with 100.341%.
Next, `CCc1nc2ccc(C(=O)Nc3cccc(NS(C)(=O)=O)c3)cn2c1N(C)CCCc1ccccc1` [CBK146670]: 96.1659%.
As to `Brc1ccc(C2(c3nnc(C4CCCO4)o3)CCOCC2)cc1` (centres unmarked) [CBK306258], the “% of control remaining” value is recorded as 112.535%.
In the case of `CCN(CC)S(=O)(=O)c1ccc(Nc2nc3ccc(Cl)cc3n3cnnc23)cc1` [CBK268259], the “% of control remaining” value is on record as 132.994%.
Take `CC1(C)CC(=O)C2=C(C1)c1c(ccc3ccccc13)NC2c1ccc(N2CCC(Cc3ccccc3)CC2)c([N+](=O)[O-])c1` (centres unmarked) [CBK262944]: the “% of control remaining” value came out at 128.891%.
In the case of `O=C(C1CC1)N1CCC2(CC1)Nc1cccnc1-n1cccc12` [CBK284504], the “% of control remaining” value amounted to 67.7492%.
For the compound `CCOCc1nc2c(c(NCCn3cccn3)n1)CCN(C(C)=O)CC2` [CBK307707], the “% of control remaining” value is recorded as 130.305%.
Turning to `CC1CN(Cc2c(C(C)C)[nH]c3ncccc23)CC(C)O1` (centres unmarked) [CBK282900], the “% of control remaining” value is reported as 105.216%.
On to `O=C(c1ccc(F)cc1)[C@H]1CCCN(C(=O)c2ccco2)C1` [CBK284328], for which the “% of control remaining” value is recorded as 100.225%.
`Cc1c(C)n(C)c2ccc(C(=O)NCCC(=O)N3CCOCC3)cc12` [CBK281669]: the “% of control remaining” value was found to be 112.563%.
Then `NS(=O)(=O)c1ccc(CCNS(=O)(=O)c2ccccc2[N+](=O)[O-])cc1` [CBK264369], with 115.706%; and `CC(C)Nc1cncc(Sc2cccc(N)c2)n1` [CBK091434], with 113.545%.
`COc1ccc(CCN2CCCCC2Cn2cncn2)cc1` (centres unmarked) [CBK305095]: the “% of control remaining” value was found to be 126.862%.
Next, `COc1ccn2c(CCCN(C)C3Cc4ccccc4C3)nc(-c3ccc4c(c3)OCO4)c2c1` [CBK036303]: 186.491%; `Cc1cccnc1NC(=O)C(C)n1cc([N+](=O)[O-])cn1` (centres unmarked) [CBK268918]: 103.12%; `O=C(NCC1COc2ccccc2O1)N1CCN(c2ccc(F)cc2)CC1` (centres unmarked) [CBK156387]: 124.564%.
In the case of `COC(=O)c1ccc2oc(-c3cc(C(O)CNC(C)(C)C)ccc3OC(C)C)cc(=O)c2c1` (centres unmarked) [CBK009944C], the “% of control remaining” value was 98.3031%.
Consider `COc1cncc(-c2cncc(Nc3ccccc3)n2)c1` [CBK065435], for which the “% of control remaining” value is 95.4773%.
On to `Cn1nc2n(C)c(=O)c3ccc(C(=O)NC4CCCC4)cc3n2c1=O` [CBK287811], for which the “% of control remaining” value is given as 86.918%.
For the compound `CC1CC1c1nnc(C2(c3ccc(Br)cc3)CCOCC2)o1` (centres unmarked) [CBK304712], the “% of control remaining” value is 135.756%.
As to `COc1ccc(F)cc1-c1ccc(CC2(C(=O)NCc3cccs3)CCOCC2)cc1` [CBK285540], the “% of control remaining” value turned out to be 81.981%.
For the compound `Nc1ncc(-c2ccc(C(F)(F)F)cc2)c(C2CCCN(C(=O)C3CCCCC3)C2)n1` (centres unmarked) [CBK285791], the “% of control remaining” value is 126.564%.

The values above are taken from paper PMC12040169 (PLOS Biology, 2025).
